Laboratory results: paper PMC12040169 (PLOS Biology, 2025)
The list shows a part of the results.

Test system: T1, CTL2-GFP (C. trachomatis L2/434/Bu, GFP-expressing)
T1 construct: L2/434/Bu, GFP-expressing
Parameters: species or system HeLa; Intracellular C. trachomatis growth in HeLa cells, bulk GFP fluorescence relative to DMSO
Settings: bulk GFP, single well; 28.5 h, 10 µM; inhibitor

| SMILES | % of control remaining [%] |
| --- | --- |
| CCc1nnc(SCC(=O)Nc2cccc(OC)c2)[nH]1 [CBK270226] | 106.795 |
| CCCCOc1ccc2c(C(F)(F)F)cc(=O)oc2c1 [CBK097821] | 99.1995 |
| COCC(=O)N1CCN2C(=O)N(Cc3ccccc3)C(=O)[C@H]2C1 [CBK289641] | 142.709 |
| O=C(O)c1c2c(nc3ccccc13)C(=Cc1ccc3c(c1)OCCO3)CC2 [CBK297479] | 142.096 |
| Cc1cc(C(=O)N2CCc3c(sc4ncnc(N)c34)C2)on1 [CBK306067] | 94.6332 |
| CCOc1ccccc1CN1CC2CCCN2C[C@@H]1C (stereo partly drawn) [CBK285435] | 109.536 |
| Cn1cc(-c2nc(C3COCCN3Cc3c(F)cccc3Cl)no2)cn1 (stereo not drawn) [CBK305441] | 122.328 |
| CC1CCc2onc(C(=O)Nc3ccncc3)c2C1 (stereo not drawn) [CBK288080] | 85.3736 |
| Cc1cc(Cn2nnc(-c3ccc(Br)cc3)n2)cc(C)c1O [CBK291129] | 99.3998 |
| O=C(c1ccncc1)N1CCc2cc(S(=O)(=O)N3CCOCC3)ccc21 [CBK287800] | 109.123 |
| CCn1c(C)nc2cc(NC(=O)Cn3cccc(C(=O)NC4CCCCC4)c3=O)ccc21 [CBK286042] | 122.653 |
| CCN1CCc2cc(-c3cncn3CC(=O)NC(C)(C)C)ccc21 [CBK281698] | 113.53 |
| CC(C)(C)c1ccc(OCCCC(=O)Nc2ccc(N3CCOCC3)cc2)cc1 [CBK264783] | 116.805 |
| COc1ccc(C(=O)C2=C(O)C(=O)N(CCN3CCOCC3)C2c2ccc(O)c(OC)c2)c(C)c1 (stereo not drawn) [CBK264858] | 100 |
| O=c1[nH]cc(-c2ccc(F)cc2)cc1CNCc1ccc(F)cc1 [CBK284695] | 137.458 |
| CC(O)CNCCNCc1cccs1 (stereo not drawn) [CBK278279C] | 115.108 |
| C=CCn1c(-c2sc(NC(=O)Cn3c(=O)n(CCC)c4ccccc43)nc2C)n[nH]c1=S [CBK297890] | 129.862 |
| CCCc1[nH]nc(O)c1C(=O)c1c(Cl)cccc1Cl [CBK093553] | 122.462 |
| CC1(C)CN(c2ccc(S(N)(=O)=O)cc2)C1=O [CBK020416] | 119.964 |
| CC(C)(C)N=C1c2nn(Cc3ccccc3)nc2C(=NC(C)(C)C)c2nn(Cc3ccccc3)nc21 [CBK261070] | 110.075 |

| SMILES | % of control remaining [%] |
| --- | --- |
| O=C(Cn1c(=O)oc2ccccc21)Nc1cccc(C(=O)O)c1 [CBK267641] | 112.984 |
| CC1CCc2c(sc3ncn(C4CCNCC4)c(=O)c23)C1 (stereo not drawn) [CBK282349] | 104.513 |
| CCc1nc(CN2CCN(C(=O)Nc3ccccc3C)CC2)cs1 [CBK305817] | 93.9736 |
| Cc1cccc(NC(=O)CCC(=O)N/N=C/c2cccnc2)c1 [CBK262023] | 102.833 |
| CC(=O)Nc1ccc(NC(=O)[C@H]2CCCC[C@H]2C(=O)O)cc1 [CBK287073] | 118.183 |
| CCOC(=O)C(NS(=O)(=O)c1ccc(NC(C)=O)c(Cl)c1)C(=O)OCC [CBK043996] | 107.379 |
| Cc1ccc(S(=O)(=O)NC(C)(C)C(=O)O)cc1 [CBK263840] | 123.59 |
| O=C(O)CCCn1cc(NC(=O)c2c(F)cccc2F)cn1 [CBK269941] | 145.032 |
| COc1ccc(-c2cc(C(=O)O)nn2C2CCS(=O)(=O)C2)cc1 (stereo not drawn) [CBK286990] | 144.839 |
| NC(=O)c1csc(-c2ccc(F)cc2F)n1 [CBK067749] | 111.401 |
| COc1cc2c(cc1OC)CN(Cc1ccccc1[N+](=O)[O-])CC2 [CBK261535] | 106.663 |
| Cc1ccc2nc(C)cc(NC(=O)c3ccncc3)c2c1 [CBK287801] | 117.829 |
| CC1CCCCN1C(=O)CN1C(=O)N2CCCN=C2c2ccccc21 (stereo not drawn) [CBK284393] | 101.287 |
| COc1ccc(OC)c(NC(=O)CSc2nnc(-c3ccc(F)cc3)n2C)c1 [CBK266073] | 157.72 |
| O=C(CNS(=O)(=O)c1cc(Br)c(Cl)s1)N1CCOCC1 [CBK034474] | 103.997 |
| COc1ccc(C(=O)CC(SCC(NC(C)=O)C(=O)O)c2ccc(Cl)cc2)cc1OC (stereo not drawn) [CBK296109] | 119.443 |
| CCOc1cc(N2CCOCC2)c(OCC)cc1NC(=O)CSc1ccccc1C(=O)O [CBK296107] | 125.526 |
| Cc1ccc(NC(=O)CCCn2cc([N+](=O)[O-])cn2)cc1Cl [CBK268485] | 113.982 |
| NC(=O)C1CCN(C2=NC(=O)/C(=C/c3cn(-c4ccccc4)nc3-c3cccs3)S2)CC1 [CBK265179] | 100 |

Reformatted as tab-separated lines: 2 of the compounds above
SMILES	% of control remaining [%]
COc1ccc(C(=O)CC(SCC(NC(C)=O)C(=O)O)c2ccc(Cl)cc2)cc1OC (stereo not drawn) [CBK296109]	119.443
CCOc1cc(N2CCOCC2)c(OCC)cc1NC(=O)CSc1ccccc1C(=O)O [CBK296107]	125.526
